## Primary screen of a compound library

Protein sequences, listed by entry. Tags and fused reporters are not part of them.
UniProt E9BF75, entry or part of it: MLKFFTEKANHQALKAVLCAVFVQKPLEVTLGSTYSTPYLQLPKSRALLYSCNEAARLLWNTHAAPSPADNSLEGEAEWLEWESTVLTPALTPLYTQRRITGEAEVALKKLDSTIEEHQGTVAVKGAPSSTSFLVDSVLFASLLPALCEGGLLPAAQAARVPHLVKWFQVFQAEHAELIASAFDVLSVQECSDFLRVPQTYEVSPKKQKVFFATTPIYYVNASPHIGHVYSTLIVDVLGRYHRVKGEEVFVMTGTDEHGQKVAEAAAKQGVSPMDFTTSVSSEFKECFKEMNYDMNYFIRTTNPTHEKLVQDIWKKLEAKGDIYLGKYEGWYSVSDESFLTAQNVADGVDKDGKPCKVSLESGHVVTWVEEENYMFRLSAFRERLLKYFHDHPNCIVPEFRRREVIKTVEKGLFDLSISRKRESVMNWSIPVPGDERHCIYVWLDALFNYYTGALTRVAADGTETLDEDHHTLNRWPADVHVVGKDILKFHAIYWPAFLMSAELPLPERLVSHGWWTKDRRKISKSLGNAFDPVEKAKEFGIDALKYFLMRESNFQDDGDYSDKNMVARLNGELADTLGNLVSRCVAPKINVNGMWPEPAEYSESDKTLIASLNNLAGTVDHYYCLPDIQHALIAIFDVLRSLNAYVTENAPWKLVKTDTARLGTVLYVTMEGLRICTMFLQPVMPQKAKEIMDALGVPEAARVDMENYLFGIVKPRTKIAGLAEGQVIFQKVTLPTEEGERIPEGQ

All values are in %.
The record does not define 0% and 100%; most values in the screen are far below 50% and negative numbers occur (in some assays of this library far below -100).
The compounds are a random part of those screened.
A dash means the value is not listed here; it may have been measured.

Mtb heat-shock: 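Assay on Mycobacterium tuberculosis, filed only as a heat shock assay from Cornell; the read-out is not stated. The concentration is filed as 10 mM, unlikely as a test dose, so the dose is not known. Direction is inferred from retests: higher values go with stronger inhibition. Size under these conditions: about 69,000 compounds, about 930 of them at 50% or above in at least one test.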
LdMetRS: 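Primary screen of methionyl-tRNA synthetase; the read-out is not stated. Target: Methionyl-tRNA synthetase (putative), Leishmania donovani (UniProt E9BF75). The test concentration is not given. The values are filed as inhibition. Size under these conditions: about 68,000 compounds, about 24 of them at 50% or above in at least one test.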
Mtb growth Cornell: 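Whole-cell assay for inhibitors of Mycobacterium tuberculosis growth, labelled Cornell in the record; the read-out is not stated. The concentration is filed as 10 mM, unlikely as a test dose, so the dose is not known. Higher means stronger inhibition (inferred from two other growth screens of the library). About 53,000 compounds were tested under these conditions; 1.7% (about 900) showed 50% or more at least once.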

SMILES	Mtb heat-shock	LdMetRS	Mtb growth Cornell
c1cncc(-n2cnnc2CCCN2CCOCC2)c1	-36.36	9.375	-
CCn1c(CN(C)C)nnc1C1CCN(c2nccc(NC)n2)CC1	-31.54	8.014	2.46
CC(C)CN1C(=O)C2(CCN(Cc3ccsc3)C2)c2ccccc21.O=C(O)C(F)(F)F (centres unmarked)	12.78	-	-
Cc1ccc(N2CCO[C@H]3CN(Cc4ccc(F)cc4)C[C@H]32)nn1	-	8	-
c1ccc(CCCn2ccnc2-c2cn(C3CCNCC3)nn2)nc1	15.66	10.16	-26.84
O=C(c1ccoc1)N1CC[C@@H]2[C@@H](CC1)OCCN2c1cccnc1	-	10.73	-
Cc1ccc2[nH]c(=O)cc(C(=O)N[C@@H]3C[C@@H](CO)N(C)C3)c2c1	6.545	14.88	-
Cc1c[nH]c(C2CCCN(Cc3ccccc3C(=O)O)C2)n1.O=CO (centres unmarked)	-20.14	-	-32.44
CCN1CCC(CC(=O)NCCc2nc(C)c(Cl)s2)CC1	6.278	18.53	24.12
Cn1cc(C(=O)NCc2cn3c(n2)CN(C2CCOCC2)CC3)cn1	-	14.37	-
CCN1CCc2[nH]cnc2C12CCN(c1ccc(Cl)c(C(=O)O)n1)CC2	6.767	0.2688	-13.31
CN(CC(=O)Nc1cccnc1)C1CCCN(c2cccnn2)C1 (centres unmarked)	-21.04	1.397	-33.44
Cc1ncnc2c1CCN(Cc1nccs1)CC2.O=C(O)C(F)(F)F	-6.743	-	33.87
Cc1ncsc1CN1C[C@@H]2COC[C@]2(C(=O)NCC2CC2)C1	-	8.711	-
OC1(CN2CCc3nnc(Cc4cccnc4)n3CC2)CCCNC1 (centres unmarked)	4.93	6.269	-17.17
CCNC(=O)[C@@H]1C[C@@H](NC(=O)c2ccc(C)s2)CN1Cc1ccccn1	11.27	15.89	-15.02
NC(=O)CSc1ccccc1NC(=O)CC1C=CCC1 (centres unmarked)	-5.635	9.816	-20.02
COc1ccc(S(=O)(=O)NCCC(O)c2cccs2)c(C)c1 (centres unmarked)	9.698	6.475	-13.99
CC(C)(C)CC(=O)N1CC[C@H]2NC(=O)N(Cc3ccccc3)C(=O)[C@H]21	-	15.93	-
COCCn1cc(C(=O)N2CCCC2c2cnn(C)c2)ccc1=O (centres unmarked)	6.583	14.38	-11.55
O=S(=O)(CC1CCCCC1)NCc1ccnc(O)c1	-2.057	12.98	-
CCNC(=O)N(C)C(c1ccccc1)c1ccccn1 (centres unmarked)	4.239	15.34	-
Cc1ccccc1NS(=O)(=O)c1cc2c(c(C(=O)O)c1)OCCO2	-0.7958	12.6	23.65
Fc1ccccc1Cc1noc(CN2CCC(C3CCCCC3)C2)n1 (centres unmarked)	-5.553	10.63	34.99
COCCOCCNC(=O)c1ccc(N2CCC(C)=N2)cc1	1.456	9.524	27.28
O=C1CCCCCN1CCc1nc(-c2cccnn2)no1	4.7	15.26	19.33
O=C(Cc1ccccc1)NCCNS(=O)(=O)C1CCCCC1	16.25	15.59	-1.602
Cc1nc(C(=O)NCc2ccccn2)cc(C2CCCN2)n1 (centres unmarked)	45.77	6.329	-18.57
O=C(O)C(F)(F)F.[H][C@@]12CCCO[C@]1([H])[C@@H](Oc1ccccn1)CN2S(=O)(=O)C1CC1	13.49	-	30.18
CCOCc1nc2c(c(N(C)Cc3ccsc3)n1)CCNCC2	-7.979	6.211	-
CCN(CC)C(=O)Cn1c(-c2ccc(Cl)cc2)nc(C)c(CCO)c1=O	69.66	9.485	3.505
CC(NC(=O)NCc1ccc(Cl)s1)c1ccccn1 (centres unmarked)	-8.146	12.5	-
CC(C)Nc1nc2c(s1)C(=O)CN(C(=O)NCc1ccccc1)C2	4.465	9.951	8.573
Cc1cn[nH]c1C1COCCN1C(=O)c1ccc2[nH]nnc2c1 (centres unmarked)	4.029	2.201	-13.68
c1csc(CCC2CCCCN2Cc2noc(C3CC3)n2)c1 (centres unmarked)	5.355	16.45	-
O=C(O)C(F)(F)F.[H][C@]12CCC(=O)N(c3ccccc3)[C@@]1([H])CCN2c1ncc(CC)cn1	27.61	-	-28.43

Some entries from above, unchanged:

| SMILES | Mtb heat-shock | LdMetRS | Mtb growth Cornell |
|---|---|---|---|
| `CCNC(=O)[C@@H]1C[C@@H](NC(=O)c2ccc(C)s2)CN1Cc1ccccn1` | 11.27 | 15.89 | -15.02 |
| `COCCOCCNC(=O)c1ccc(N2CCC(C)=N2)cc1` | 1.456 | 9.524 | 27.28 |
| `O=S(=O)(CC1CCCCC1)NCc1ccnc(O)c1` | -2.057 | 12.98 | - |

The values are deposited in ChEMBL (CHEMBL3988442, “University of Dundee, Small-Polar-MMV Screening Library” (2021)).